Assay results taken from publication doi:10.1101/2024.10.25.620210.
Where two headings read alike, the source gives them in different places. These are yes or no findings as the source states them, for the method shown. Binding seen in cells or lysates may run through a third protein. Some results given as binding are weak or reduced against the parent protein; the word gives no strength. For some assays here: Tags and fused reporters may be left off the sequences shown.

Amino acid sequences for entries named in this document (tags omitted).
UniProt P93025: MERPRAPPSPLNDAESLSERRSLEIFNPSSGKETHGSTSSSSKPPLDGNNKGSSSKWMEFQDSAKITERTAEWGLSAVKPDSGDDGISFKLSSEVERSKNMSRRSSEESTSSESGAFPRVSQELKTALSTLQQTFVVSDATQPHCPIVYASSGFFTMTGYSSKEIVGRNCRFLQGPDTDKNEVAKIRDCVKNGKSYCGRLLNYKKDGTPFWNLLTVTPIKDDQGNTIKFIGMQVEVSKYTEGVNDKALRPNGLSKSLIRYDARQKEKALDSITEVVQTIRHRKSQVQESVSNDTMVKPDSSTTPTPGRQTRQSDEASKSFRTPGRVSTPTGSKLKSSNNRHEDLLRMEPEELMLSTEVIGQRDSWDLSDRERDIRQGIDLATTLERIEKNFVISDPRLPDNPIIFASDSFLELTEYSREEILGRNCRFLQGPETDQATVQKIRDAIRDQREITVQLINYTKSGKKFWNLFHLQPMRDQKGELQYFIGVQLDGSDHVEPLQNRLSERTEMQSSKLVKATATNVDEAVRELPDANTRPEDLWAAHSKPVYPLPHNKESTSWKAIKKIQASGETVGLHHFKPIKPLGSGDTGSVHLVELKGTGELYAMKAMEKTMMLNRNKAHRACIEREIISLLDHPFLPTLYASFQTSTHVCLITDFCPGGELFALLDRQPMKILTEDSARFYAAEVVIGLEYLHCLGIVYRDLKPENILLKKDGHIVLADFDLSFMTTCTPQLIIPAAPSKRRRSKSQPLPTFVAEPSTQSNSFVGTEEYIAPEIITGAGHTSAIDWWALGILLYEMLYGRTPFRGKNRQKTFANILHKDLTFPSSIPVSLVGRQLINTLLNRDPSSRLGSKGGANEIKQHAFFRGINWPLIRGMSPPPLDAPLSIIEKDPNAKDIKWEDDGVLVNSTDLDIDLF
UniProt Q96524: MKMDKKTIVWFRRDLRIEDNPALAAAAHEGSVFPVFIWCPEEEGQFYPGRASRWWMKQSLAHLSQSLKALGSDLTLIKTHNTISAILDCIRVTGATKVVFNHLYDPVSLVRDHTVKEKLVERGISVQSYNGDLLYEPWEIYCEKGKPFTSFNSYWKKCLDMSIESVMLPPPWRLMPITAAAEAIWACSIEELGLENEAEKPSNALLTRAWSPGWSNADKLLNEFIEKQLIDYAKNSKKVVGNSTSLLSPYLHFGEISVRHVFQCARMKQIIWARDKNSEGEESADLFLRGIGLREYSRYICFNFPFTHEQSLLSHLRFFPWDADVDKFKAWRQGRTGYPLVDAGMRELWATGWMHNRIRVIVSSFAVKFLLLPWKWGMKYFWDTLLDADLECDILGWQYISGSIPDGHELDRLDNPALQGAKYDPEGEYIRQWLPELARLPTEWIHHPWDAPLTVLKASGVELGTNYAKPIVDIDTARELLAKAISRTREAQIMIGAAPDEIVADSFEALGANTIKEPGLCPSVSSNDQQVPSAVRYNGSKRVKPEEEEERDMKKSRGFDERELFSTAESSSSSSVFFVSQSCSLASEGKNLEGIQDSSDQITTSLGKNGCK

T1: PHYA split-YFP fusion (Arabidopsis thaliana) (UniProt P14712)
T1 sequence: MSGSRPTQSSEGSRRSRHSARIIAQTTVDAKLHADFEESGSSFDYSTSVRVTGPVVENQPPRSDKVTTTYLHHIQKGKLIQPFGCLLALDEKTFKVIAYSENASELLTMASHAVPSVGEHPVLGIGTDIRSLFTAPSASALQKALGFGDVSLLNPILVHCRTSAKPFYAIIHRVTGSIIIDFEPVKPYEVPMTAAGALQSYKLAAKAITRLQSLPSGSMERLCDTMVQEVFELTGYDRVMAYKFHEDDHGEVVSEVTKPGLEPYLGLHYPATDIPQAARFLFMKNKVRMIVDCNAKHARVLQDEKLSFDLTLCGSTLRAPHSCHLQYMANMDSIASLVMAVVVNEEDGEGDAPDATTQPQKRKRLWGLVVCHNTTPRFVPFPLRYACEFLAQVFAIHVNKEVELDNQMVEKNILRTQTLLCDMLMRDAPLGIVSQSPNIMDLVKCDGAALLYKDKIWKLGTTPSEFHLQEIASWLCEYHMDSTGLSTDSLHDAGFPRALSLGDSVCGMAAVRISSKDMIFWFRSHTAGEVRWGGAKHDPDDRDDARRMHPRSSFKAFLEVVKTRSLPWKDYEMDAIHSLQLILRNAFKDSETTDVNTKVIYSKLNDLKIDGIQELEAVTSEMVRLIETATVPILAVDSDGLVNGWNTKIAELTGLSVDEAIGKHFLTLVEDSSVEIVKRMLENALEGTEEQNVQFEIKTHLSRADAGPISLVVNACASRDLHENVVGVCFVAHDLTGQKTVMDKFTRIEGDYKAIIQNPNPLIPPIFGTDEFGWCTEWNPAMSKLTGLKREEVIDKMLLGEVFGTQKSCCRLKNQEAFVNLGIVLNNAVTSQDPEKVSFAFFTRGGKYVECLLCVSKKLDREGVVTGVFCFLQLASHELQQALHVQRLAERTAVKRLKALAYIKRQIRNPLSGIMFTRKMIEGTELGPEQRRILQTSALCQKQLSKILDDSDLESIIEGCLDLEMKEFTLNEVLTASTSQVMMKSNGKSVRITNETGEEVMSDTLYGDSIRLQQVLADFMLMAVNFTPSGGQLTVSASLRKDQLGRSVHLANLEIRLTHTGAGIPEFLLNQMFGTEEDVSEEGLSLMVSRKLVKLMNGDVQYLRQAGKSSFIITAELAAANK

T2: UVR8 split-YFP fusion (Arabidopsis thaliana) (UniProt Q9FN03)
T2 sequence: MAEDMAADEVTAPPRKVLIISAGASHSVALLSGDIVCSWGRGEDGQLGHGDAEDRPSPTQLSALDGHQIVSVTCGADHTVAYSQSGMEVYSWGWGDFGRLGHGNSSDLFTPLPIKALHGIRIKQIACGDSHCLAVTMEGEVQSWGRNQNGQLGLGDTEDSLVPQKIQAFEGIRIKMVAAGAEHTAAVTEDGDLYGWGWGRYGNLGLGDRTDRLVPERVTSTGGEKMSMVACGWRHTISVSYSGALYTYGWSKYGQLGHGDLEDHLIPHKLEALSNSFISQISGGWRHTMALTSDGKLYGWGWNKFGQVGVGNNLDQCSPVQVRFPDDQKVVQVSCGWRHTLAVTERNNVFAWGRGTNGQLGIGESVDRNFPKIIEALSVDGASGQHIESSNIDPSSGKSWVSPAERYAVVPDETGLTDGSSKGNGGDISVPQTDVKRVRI

T3: PAP8 split-YFP fusion (BiFC of Figure 5d) (Arabidopsis thaliana) (UniProt Q9XI19)
T3 sequence: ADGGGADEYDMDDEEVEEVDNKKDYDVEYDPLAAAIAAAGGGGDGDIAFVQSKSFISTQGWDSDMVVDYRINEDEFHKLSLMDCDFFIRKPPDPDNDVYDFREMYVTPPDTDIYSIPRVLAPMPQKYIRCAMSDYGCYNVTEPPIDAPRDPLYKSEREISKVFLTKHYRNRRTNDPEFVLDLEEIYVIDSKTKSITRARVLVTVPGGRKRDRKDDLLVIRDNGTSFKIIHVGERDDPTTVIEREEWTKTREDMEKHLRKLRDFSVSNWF


Key:
Assay in all cases: split reporter
[1] = target: T1, PHYA split-YFP fusion (Arabidopsis thaliana)
[2] = target: PHOT2 split-YFP fusion (Arabidopsis thaliana) (UniProt P93025)
[3] = target: T2, UVR8 split-YFP fusion (Arabidopsis thaliana)
[4] = target: CRY2 split-YFP fusion (Arabidopsis thaliana) (UniProt Q96524)
[5] = target: CRY2 split-YFP fusion (Arabidopsis thaliana) (UniProt Q96524); remark: listed apart in the source
[6] = target: T3, PAP8 split-YFP fusion (BiFC of Figure 5d) (Arabidopsis thaliana)

Row | binding [5] | binding [6] | Molecule | further results
1 | – | – | ΔcTP version of PAP8, split-YFP fusion (from UniProt Q9XI19 60-328) (domain or fragment) | binding [1]: binds weakly; binding [2]: binds; binding [3]: binds; binding [4]: binds
2 | binds | – | ΔcTP version of PAP5, split-YFP fusion (domain or fragment, UniProt F4IHY7 31-527) VKCGFPLKTLHAGITSRDRSLRHCIKCKKEDGDGDVSEGSKKSEEGFEYVTVERHPYHSYMDSTSGKLEPASGARASIPGEDYWPEGTSSRVRAARAPQPAGESSSFPSYGKNPGSRRKKNRKATEENVTVETNDEVSDSEDSSEEEENDSSDGFVTYKNEFEREEEETGFELDKKLGRPHPFIDPTKKKQIEKTLTSDESWWNWRKPEKEQWSRWQRRRPDVETVFLKAMAETGQVKLYGEEPTLTETSLYRARRHLFKEERLQAERERLAKEGPMAFYSEWVKAWKRDTSREAVQKHFEETGEDENTQLIEMFSHQTDREYRIMMGTDIRIKRDPLAMRMREDQIKQIWGGDPVYPTINYIQDPNAVMDFRGPDFHEPTPNMLSYLKENGKVISREMHEALLTKEKTEQLEVPDMDDAMAQAVDIGENDDDEDDADVEKDDEKVPRNWSVLKETPELRTAKPKPKKEGRMSLDEAVDDAENLTDFLMDFEEETDP | –
3 | – | binds | EMB1144 split-YFP fusion (protein, UniProt P57720 51-436) TGSSYGTHFRVSTFGESHGGGVGCIIDGCPPRIPLTESDLQFDLDRRRPGQSRITTPRKETDTCRISSGVSEGMTTGTPIHVFVPNTDQRGLDYSEMSVAYRPSHADATYDMKYGVRSVQGGGRSSARETIGRVAPGALAKKILKQFAGTEILAYVSQVHHVVLPEELVDHENLTLEQIENNIVRCPNPEYAEKMIAAIDAVRTKGNSVGGVVTCIVRNAPRGLGTPVFDKLEAELAKACMSLPATKGFEFGSGFAGTFLTGLEHNDEFYTDENGRIRTRTNRSGGIQGGISNGEIINMRVAFKPTSTIGRKQNTVTRDKVETEMIARGRHDPCVVPRAVPMVEAMVALVLVDQLMAQYAQCHLFPINPELQEPLQIEQPQNATAL | –
4 | – | binds | TIG split-YFP fusion (protein, UniProt Q8S9L5 78-547) AASPAVETSVKEDKLPADLKVTETVQANSSVKLSVEVPEIVCEDCYQRVLTEFMKLSKVPGFRPKTRVPENIIVGFVGRQYVLRATVESILKRTLPHAMESVTGRALKDSIQIVSSFPDMEKAYSKLKTLSYEVVVDVVPELKWNPEDGYKNMKVVVELGDEIDAKKACERQLRQKYKSLGALKIVTERGLQVGDLAVVDISATTIDEDGSTGQAIPDAESKGFHFDTEEGNRLLPGFLDAIIGIRAGESKSFTLVFPESWKQESLRGQRAQFTVDCKELFYRDLPTLDDSLADKLLPGCTTLKEVEETLAKRCQEMEQEAKEQATDNAILEQIRKMVEVEIPQSLFEEQGRQFYGARLLEIQGNMKLNEDQLASLSSQKAVNEFLETQRESITNIIKQNIAVGDIFKRENLEFSTDELVKEVENSISEFKKHKQEFDEERVKDQVQEILEGAKVLEWLKDRAEIQYITR | –
5 | binds | – | ΔcTP version of PAP7, split-YFP fusion (domain or fragment, UniProt Q84JF5 63-483) ASEESSSSELETADPDFYKIGYVRSVRAYGVEFKEGPDGFGVYASKDIEPRRRARVIMEIPLELMITIRQKHPWMFFPDIVPIGHPIFDIINSTDPEIDWDIRLACLLLFSFDRDDHFWRLYGDFLPAADECSSLLLATEEDLAELQDPDLVSTIRQQQKRILDFWEKNWHSGVPLKIKRLAEDPERFIWAVSMAQTRCISMQTRVGALVQELNMMIPYADMLNHSFEPNCFLHWRPKDRMLEVMSNAGQDIKKGEEMTINYMPGQKNNMLMERYGFSTPVNPWDAIKFSGDSRIHLNSFLSVFNIYGLPEEYYHDSELSRGDTFVDGAVIAAARTLPTWSDIDLPPIPSAERKAVKELQDECRKMLAEYPTTAEQDQKLLDSMSEARTTFATAVKYRMHRKMFIGKIIKALDIYQERLLY | –
6 | – | binds | STIC2 split-YFP fusion (protein, UniProt O82230 49-182) VNGLFGGGNKDNNSEDGQSKAGIFGNMQNMYETVKKAQMVVQVEAVRVQKELAAAEFDGYCAGELVKVTLSGNQQPIRTDITEAAMELGSEKLSQLVTEAYKDAHAKSVVAMKERMSDLAQSLGMPPGLSEGMK | –
7 | – | binds | LIN2 split-YFP fusion (protein, UniProt Q9LR75 49-386) VSIEKEVPETERPFTFLRDSDDVTPSSSSSSVRARFETMIRAAQDSVCDAIEAIEGGPKFKEDVWSRPGGGGGISRVLQDGNVFEKAGVNVSVVYGVMPPEAYRAAKGSASDQKPGPVPFFAAGVSSVLHPKNPFAPTLHFNYRYFETDAPKDVPGAPRQWWFGGGTDFTPAYIFEEDVKHFHSIQKQACDKFDPSFYPRFKKWCDDYFYIKHRDERRGLGGIFFDDLNDYDQEMLLSFATECANSVVPAYIPIVEKRKDMEFTEQHKAWQQLRRGRYVEFNLVYDRGTTFGLKTGGRIESILVSLPLSARWEYDHKPEEGTEEWKLLDACINPKEWI | –
8 | binds | – | ΔcTP version of PAP12, split-YFP fusion (domain or fragment, UniProt Q8VZV9 33-161) CGIQRDDNGRRVWRRRTLTKKDDMLRYKMQRVPFVEEQVRKIREVGKVMTMDIEQLLLREDNRFEFVNSVAAEATEYVDKNRDEYGGSKKAIFHVLSNRVNDLGFDRPEAYVEADPYKPGPGYLLEYYT | –
